Some of the results follow.

The text below walks through data of article PMC7819943, “Rice protein-binding microarrays: a tool to detect cis-acting elements near promoter regions in rice”.

This assay concerns the target T1, OsSMF1 (Oryza sativa, UniProt Q6ZLB0 1-436).
T1 sequence: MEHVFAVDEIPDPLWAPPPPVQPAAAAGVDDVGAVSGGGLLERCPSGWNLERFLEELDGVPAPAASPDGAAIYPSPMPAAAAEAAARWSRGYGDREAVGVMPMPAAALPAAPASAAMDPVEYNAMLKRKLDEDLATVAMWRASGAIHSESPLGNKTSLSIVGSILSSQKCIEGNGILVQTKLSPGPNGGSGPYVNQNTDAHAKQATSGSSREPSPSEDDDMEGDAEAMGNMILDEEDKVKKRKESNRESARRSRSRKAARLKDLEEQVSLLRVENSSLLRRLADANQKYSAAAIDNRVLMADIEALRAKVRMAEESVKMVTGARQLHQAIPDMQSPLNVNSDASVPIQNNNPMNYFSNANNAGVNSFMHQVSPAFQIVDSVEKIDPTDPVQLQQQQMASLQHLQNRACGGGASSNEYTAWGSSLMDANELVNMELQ
The experiment in a line: protein-binding microarray (RPBM); PBS, 2% BSA, 51.3 ng/ul salmon testes DNA, 50 uM zinc acetate, 200 nM TF, 25 C, 1 h; high values mean tight binding. To be noted: protein: recombinant; tags: N-terminal polyhistidine and DsRed monomer fusion (pET32a); chain copies: 2; label: CyDye5-dUTP incorporated in the synthesized complementary strand; 3' TTTTT single-stranded linker to array surface; dsDNA, one strand shown. The essentials:
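A custom Agilent array was converted to double-stranded form by primer extension with Cy5-dUTP and blocked with 2% BSA. Protein at 200 nM in PBS with 2% BSA, salmon testes DNA and 50 µM zinc acetate was applied for 1 h at 25 °C, followed by washing. The proteins were polyhistidine–DsRed N-terminal fusions of transcription factors, expressed in E. coli BL21-CodonPlus and Ni–NTA-purified. The binding signal is per-feature fluorescence intensity (arbitrary units) from an Axon 4000B scanner.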
For “CTGTCATGGGAAACAATGACTTGTGTGGTGGGGCGCCTCACGGAGTCACCTAGTGCAG”, the binding signal is 3690 fluorescence intensity (a.u.).
Consider “ATACCACAGATAATTACTGACAAGTCAGTGCAAACCATTGCGGAGTCACCTAGTGCAG”, for which the binding signal was 3530 fluorescence intensity (a.u.).
In the case of “CGCTGTCTCGTCGCCCTCACGTACGACTTCCATCACGAGCCGGAGTCACCTAGTGCAG” it was 24300 fluorescence intensity (a.u.); in that of “ATGGATAATAAAAGCATCATATATCCACACGTGGTTAAACCGGAGTCACCTAGTGCAG”, 3960 fluorescence intensity (a.u.); in that of “TCTCGTCCGCCACGTACTTGACGCTGCCCATCAAGGCAGCCGGAGTCACCTAGTGCAG”, 8140 fluorescence intensity (a.u.).
Turning to “ATCTTTTGCCAGATCACCACGGCATGCCTCTTCCTCCTCCCGGAGTCACCTAGTGCAG”, the binding signal was 6980 fluorescence intensity (a.u.).
As to “AGTCCGCATCGAGGAATAGGTTGATGTCATCTCCTGTGCTCGGAGTCACCTAGTGCAG”, the binding signal is 7100 fluorescence intensity (a.u.).
As to “CGTAAGCTTATCAGCAAGTTTAATAGTATAGCTGGCTGCTCGGAGTCACCTAGTGCAG”, the binding signal was 21800 fluorescence intensity (a.u.).
Under “TGCGCTCGTGGCGCGCTCTTTTCGCGCCAGGAAAATTTTCCGGAGTCACCTAGTGCAG” stands 3910 fluorescence intensity (a.u.); under “TTCTTTATTGCTTACCCTTACTCTTGGTTAACTTCTTCTGCGGAGTCACCTAGTGCAG”, 3290 fluorescence intensity (a.u.); under “TAGGCTAGTCATTTAAACTGACTCACAGACAAACTGTTTGCGGAGTCACCTAGTGCAG”, 4320 fluorescence intensity (a.u.).
As to “ACGGACGTGTTCACTACGATCTGTGGACCCGATACACTGGCGGAGTCACCTAGTGCAG”, the binding signal is 3400 fluorescence intensity (a.u.).
Under “ACTTTTCGTTGCCGTGTTGGGATGTGCACCCTGATACCCGCGGAGTCACCTAGTGCAG” stands 3310 fluorescence intensity (a.u.); under “CCCTAGCCCTCGCCCTGGTCCGTCCGGCGTGGCGCGCGCTCGGAGTCACCTAGTGCAG”, 5150 fluorescence intensity (a.u.); under “TGTGTAAACACAACCGTCCGTGACACGTACGTACATGGGGCGGAGTCACCTAGTGCAG”, 7700 fluorescence intensity (a.u.).
Under “TCCTAAGCTAATACGTACTCTACGTGTTAATGGATTTGTTCGGAGTCACCTAGTGCAG” stands 3840 fluorescence intensity (a.u.); under “CGTGCGGAGATATTTCCGGACGGTGACAACGAAAATATCCCGGAGTCACCTAGTGCAG”, 3190 fluorescence intensity (a.u.); under “TGGACTATTAGGGCATTAGCAGTGCGTCACTTGTATTTGTCGGAGTCACCTAGTGCAG”, 5550 fluorescence intensity (a.u.).
In the case of “GAGTTAACCCATAGACCAGTGCATTGGTGTCACGGGAAACCGGAGTCACCTAGTGCAG” it was 3210 fluorescence intensity (a.u.); in that of “ATGCAGCAAGTGACGTACGCGTGAAGATCATATCGAGCCACGGAGTCACCTAGTGCAG”, 3900 fluorescence intensity (a.u.).
Consider “GGGCGGCGCGGCGGCGCGCGGAGGGCGACGGCTGACGGGGCGGAGTCACCTAGTGCAG”, for which the binding signal was 5580 fluorescence intensity (a.u.).
Take “TCCCCAAGGCGCAAACGCGTGCCCCACCTGTCACCCACACCGGAGTCACCTAGTGCAG”: the binding signal was 3920 fluorescence intensity (a.u.).
As for “AAAGCAGATAGTCAGAATGTTGACCTTGCCATCAGTCTTTCGGAGTCACCTAGTGCAG”, the binding signal is 7370 fluorescence intensity (a.u.).
For “GTCGAGGAATCATTTCACCTCTGCCTCTTGTCAGCTTCGCCGGAGTCACCTAGTGCAG”, the binding signal is 3560 fluorescence intensity (a.u.).
In the case of “ATCGCTCGTGTGGATGCAAGCATAGCCTCATTCTGCCTTGCGGAGTCACCTAGTGCAG” it was 4060 fluorescence intensity (a.u.); in that of “GCACATCCACCACATAGACAAATTCATGTGTTTGCTTTTGCGGAGTCACCTAGTGCAG”, 3360 fluorescence intensity (a.u.).
With “TTACACGTTAAGAAAGTGCTAAGTAAACAAGACTGCCTGACGGAGTCACCTAGTGCAG”, the binding signal is 17700 fluorescence intensity (a.u.).
In the case of “TCGAGGACGTCGTCGCCGCCAGCTCCGTCGGCGGCAACGGCGGAGTCACCTAGTGCAG” it was 31400 fluorescence intensity (a.u.); in that of “ACAGCGTAGGCTTTTCTTTCACGTCACCACGCGTACGCGACGGAGTCACCTAGTGCAG”, 6560 fluorescence intensity (a.u.); in that of “AGGAGTGTAGGTAATTGGTGCATGTTGCTATCTAGAATGGCGGAGTCACCTAGTGCAG”, 3360 fluorescence intensity (a.u.).
Under “AATATGAACTGATAGGATTTGTTTTCACACCATACCAAACCGGAGTCACCTAGTGCAG” stands 59700 fluorescence intensity (a.u.); under “GGTGGACATTAGGTCATCAGCACGTGCGAAGTAGGCCTCACGGAGTCACCTAGTGCAG”, 36600 fluorescence intensity (a.u.); under “CTCTGATCTTGACATGACGTGACAACAACCACCAGGACATCGGAGTCACCTAGTGCAG”, 5080 fluorescence intensity (a.u.).
Under “AGTTCGTTTCGCTCCTCGCCACGCACCGCTTCGCAGCCGCCGGAGTCACCTAGTGCAG” stands 3970 fluorescence intensity (a.u.); under “TCCCATCTTCGGTGACATCCTGTCTTTGCTTCTTAACTATCGGAGTCACCTAGTGCAG”, 3750 fluorescence intensity (a.u.).
For the sequence “GGCAGGCAGCCCTGATTAGCTAAACACGTCATTGCTCAGGCGGAGTCACCTAGTGCAG”, the binding signal is 10700 fluorescence intensity (a.u.).
Turning to “AGTGTCACTACTACTGGTACGGTGATGTGTACATCTCGCCCGGAGTCACCTAGTGCAG”, the binding signal was 6280 fluorescence intensity (a.u.).
In the case of “GCCCCAGCTTATCTGTCCACCTCACTCAGTCTCATCCCCACGGAGTCACCTAGTGCAG” it was 3770 fluorescence intensity (a.u.).
Regarding “ATGCTCCATGCATGTGTCCAAACATTTGATGTGACGGGAGCGGAGTCACCTAGTGCAG”, the binding signal is 3230 fluorescence intensity (a.u.).
In the case of “GTCCATGTGGCGTGCCACGTAGACAAGACCACGGTCAAACCGGAGTCACCTAGTGCAG” it was 7810 fluorescence intensity (a.u.); in that of “TCGCTTCGCTTGGAACACCTCCAAAACCCTACTTCCGCCTCGGAGTCACCTAGTGCAG”, 3480 fluorescence intensity (a.u.); in that of “GTGGGGCCCATGTGGCCCCATGTGTCATCTTTACTACCGTCGGAGTCACCTAGTGCAG”, 5880 fluorescence intensity (a.u.).
